From paper PMC9438157 come the findings set out here.

These are yes or no findings as the source states them, for the method shown. In cells and extracts the contact can be indirect. Some binding calls cover weakened binding; strength is not graded here. For some of these results: Sequences can lack the tags named with a protein.

For test [1], the target named is T1, flag-tagged SMG5 (UniProt Q9UPR3).
T1 sequence: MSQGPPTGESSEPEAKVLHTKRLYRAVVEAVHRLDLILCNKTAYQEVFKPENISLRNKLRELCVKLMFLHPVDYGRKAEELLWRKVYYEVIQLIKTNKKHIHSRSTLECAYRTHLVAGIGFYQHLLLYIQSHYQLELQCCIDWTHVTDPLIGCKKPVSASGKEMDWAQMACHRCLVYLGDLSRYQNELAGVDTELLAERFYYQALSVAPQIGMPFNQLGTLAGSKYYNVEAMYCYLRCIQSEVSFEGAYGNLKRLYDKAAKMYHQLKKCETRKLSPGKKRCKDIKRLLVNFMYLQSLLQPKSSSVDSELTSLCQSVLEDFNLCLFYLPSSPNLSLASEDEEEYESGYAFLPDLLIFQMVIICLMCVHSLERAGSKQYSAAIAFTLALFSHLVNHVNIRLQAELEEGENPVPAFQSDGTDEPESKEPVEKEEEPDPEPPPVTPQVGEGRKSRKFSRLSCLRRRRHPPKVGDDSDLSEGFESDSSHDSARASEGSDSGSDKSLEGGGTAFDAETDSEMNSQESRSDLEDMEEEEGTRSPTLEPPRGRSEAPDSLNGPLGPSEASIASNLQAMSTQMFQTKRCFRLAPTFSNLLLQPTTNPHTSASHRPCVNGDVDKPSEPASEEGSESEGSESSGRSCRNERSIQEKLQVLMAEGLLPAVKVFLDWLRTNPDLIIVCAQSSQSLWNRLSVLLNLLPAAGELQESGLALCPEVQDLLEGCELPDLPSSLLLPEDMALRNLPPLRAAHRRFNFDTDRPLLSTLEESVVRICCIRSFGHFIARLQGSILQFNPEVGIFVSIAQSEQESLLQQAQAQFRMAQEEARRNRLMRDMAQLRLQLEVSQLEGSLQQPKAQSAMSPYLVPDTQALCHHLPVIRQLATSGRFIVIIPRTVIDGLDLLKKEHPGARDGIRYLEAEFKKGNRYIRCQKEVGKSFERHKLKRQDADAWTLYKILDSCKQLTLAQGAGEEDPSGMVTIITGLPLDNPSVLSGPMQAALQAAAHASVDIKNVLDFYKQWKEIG
Nature of the test: co-IP; 293 T cells transfected with myc-tagged PP2A and flag-tagged SMG5, treated with or without nonbiotinylated DDIT4-AS1 RNA (doses); IP with anti-Flag antibodies, Western blot. A general note: Immunoblotting shows a protein as a band on a membrane.

The target in test [2] is T2, SMG5 (human (endogenous in BxPC-3 and SW1990)) (UniProt Q9UPR3).
T2 sequence: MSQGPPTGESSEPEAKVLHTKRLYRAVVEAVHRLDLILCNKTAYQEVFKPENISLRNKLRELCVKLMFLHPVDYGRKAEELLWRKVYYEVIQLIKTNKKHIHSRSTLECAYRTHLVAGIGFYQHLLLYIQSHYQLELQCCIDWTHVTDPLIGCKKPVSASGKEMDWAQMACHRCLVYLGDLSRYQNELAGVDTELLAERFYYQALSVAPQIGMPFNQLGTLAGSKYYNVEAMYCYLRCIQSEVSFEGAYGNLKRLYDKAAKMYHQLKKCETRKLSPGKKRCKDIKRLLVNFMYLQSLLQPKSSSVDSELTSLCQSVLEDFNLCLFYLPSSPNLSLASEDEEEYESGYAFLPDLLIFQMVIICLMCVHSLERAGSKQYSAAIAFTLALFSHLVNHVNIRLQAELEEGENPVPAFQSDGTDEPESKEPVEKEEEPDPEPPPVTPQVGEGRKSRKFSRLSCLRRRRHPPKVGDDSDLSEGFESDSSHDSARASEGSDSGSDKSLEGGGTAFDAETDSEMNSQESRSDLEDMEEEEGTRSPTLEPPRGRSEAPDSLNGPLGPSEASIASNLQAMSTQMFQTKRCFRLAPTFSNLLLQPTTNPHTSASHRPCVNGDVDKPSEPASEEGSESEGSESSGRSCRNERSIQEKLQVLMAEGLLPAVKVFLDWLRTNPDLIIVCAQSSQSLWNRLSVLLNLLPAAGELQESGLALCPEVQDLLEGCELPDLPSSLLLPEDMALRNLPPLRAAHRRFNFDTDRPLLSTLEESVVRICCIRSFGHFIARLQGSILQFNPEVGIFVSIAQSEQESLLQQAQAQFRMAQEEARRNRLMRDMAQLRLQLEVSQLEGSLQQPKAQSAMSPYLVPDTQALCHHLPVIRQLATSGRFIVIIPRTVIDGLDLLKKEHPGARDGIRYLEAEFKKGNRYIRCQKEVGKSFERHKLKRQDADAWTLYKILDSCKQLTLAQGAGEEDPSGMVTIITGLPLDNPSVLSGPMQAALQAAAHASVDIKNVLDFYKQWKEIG
Briefly: co-IP; endogenous proteins; lysates of BxPC-3 cells (with or without DDIT4-AS1 siRNA) and SW1990 cells (with or without DDIT4-AS1 overexpression plasmid); IP with anti-SMG5 antibodies, Protein A/G Dynabeads, Western blot; lysis buffer 25 mM Tris-HCl pH 7.4, 150 mM NaCl, 1% NP-40, 1 mM EDTA, 5% glycerol.

B1: UPF1 (protein, UniProt Q92900-2 1-1118)
chain: MSVEAYGPSSQTLTFLDTEEAELLGADTQGSEFEFTDFTLPSQTQTPPGGPGGPGGGGAGGPGGAGAGAAAGQLDAQVGPEGILQNGAVDDSVAKTSQLLAELNFEEDEEDTYYTKDLPIHACSYCGIHDPACVVYCNTSKKWFCNGRGNTSGSHIVNHLVRAKCKEVTLHKDGPLGETVLECYNCGCRNVFLLGFIPAKADSVVVLLCRQPCASQSSLKDINWDSSQWQPLIQDRCFLSWLVKIPSEQEQLRARQITAQQINKLEELWKENPSATLEDLEKPGVDEEPQHVLLRYEDAYQYQNIFGPLVKLEADYDKKLKESQTQDNITVRWDLGLNKKRIAYFTLPKTDSDMRLMQGDEICLRYKGDLAPLWKGIGHVIKVPDNYGDEIAIELRSSVGAPVEVTHNFQVDFVWKSTSFDRMQSALKTFAVDETSVSGYIYHKLLGHEVEDVIIKCQLPKRFTAQGLPDLNHSQVYAVKTVLQRPLSLIQGPPGTGKTVTSATIVYHLARQGNGPVLVCAPSNIAVDQLTEKIHQTGLKVVRLCAKSREAIDSPVSFLALHNQIRNMDSMPELQKLQQLKDETGELSSADEKRYRALKRTAERELLMNADVICCTCVGAGDPRLAKMQFRSILIDESTQATEPECMVPVVLGAKQLILVGDHCQLGPVVMCKKAAKAGLSQSLFERLVVLGIRPIRLQVQYRMHPALSAFPSNIFYEGSLQNGVTAADRVKKGFDFQWPQPDKPMFFYVTQGQEEIASSGTSYLNRTEAANVEKITTKLLKAGAKPDQIGIITPYEGQRSYLVQYMQFSGSLHTKLYQEVEIASVDAFQGREKDFIILSCVRANEHQGIGFLNDPRRLNVALTRARYGVIIVGNPKALSKQPLWNHLLNYYKEQKVLVEGPLNNLRESLMQFSKPRKLVNTINPGARFMTTAMYDAREAIIPGSVYDRSSQGRPSSMYFQTHDQIGMISAGPSHVAAMNIPIPFNLVMPPMPPPGYFGQANGPAAGRGTPKGKTGRGGRQKNRFGLPGPSQTNLPNSQASQDVASQPFSQGALTQGYISMSQPSQMSQPGLSQPELSQDSYLGDEFKSQIDVALSQDSTYQGERAYQHGGVTGLSQY
With B1, the binding result in test [1] and in test [2] was “binds” each time.

B2: phospho-UPF1 (protein, UniProt Q92900-2 1-1118)
chain: MSVEAYGPSSQTLTFLDTEEAELLGADTQGSEFEFTDFTLPSQTQTPPGGPGGPGGGGAGGPGGAGAGAAAGQLDAQVGPEGILQNGAVDDSVAKTSQLLAELNFEEDEEDTYYTKDLPIHACSYCGIHDPACVVYCNTSKKWFCNGRGNTSGSHIVNHLVRAKCKEVTLHKDGPLGETVLECYNCGCRNVFLLGFIPAKADSVVVLLCRQPCASQSSLKDINWDSSQWQPLIQDRCFLSWLVKIPSEQEQLRARQITAQQINKLEELWKENPSATLEDLEKPGVDEEPQHVLLRYEDAYQYQNIFGPLVKLEADYDKKLKESQTQDNITVRWDLGLNKKRIAYFTLPKTDSDMRLMQGDEICLRYKGDLAPLWKGIGHVIKVPDNYGDEIAIELRSSVGAPVEVTHNFQVDFVWKSTSFDRMQSALKTFAVDETSVSGYIYHKLLGHEVEDVIIKCQLPKRFTAQGLPDLNHSQVYAVKTVLQRPLSLIQGPPGTGKTVTSATIVYHLARQGNGPVLVCAPSNIAVDQLTEKIHQTGLKVVRLCAKSREAIDSPVSFLALHNQIRNMDSMPELQKLQQLKDETGELSSADEKRYRALKRTAERELLMNADVICCTCVGAGDPRLAKMQFRSILIDESTQATEPECMVPVVLGAKQLILVGDHCQLGPVVMCKKAAKAGLSQSLFERLVVLGIRPIRLQVQYRMHPALSAFPSNIFYEGSLQNGVTAADRVKKGFDFQWPQPDKPMFFYVTQGQEEIASSGTSYLNRTEAANVEKITTKLLKAGAKPDQIGIITPYEGQRSYLVQYMQFSGSLHTKLYQEVEIASVDAFQGREKDFIILSCVRANEHQGIGFLNDPRRLNVALTRARYGVIIVGNPKALSKQPLWNHLLNYYKEQKVLVEGPLNNLRESLMQFSKPRKLVNTINPGARFMTTAMYDAREAIIPGSVYDRSSQGRPSSMYFQTHDQIGMISAGPSHVAAMNIPIPFNLVMPPMPPPGYFGQANGPAAGRGTPKGKTGRGGRQKNRFGLPGPSQTNLPNSQASQDVASQPFSQGALTQGYISMSQPSQMSQPGLSQPELSQDSYLGDEFKSQIDVALSQDSTYQGERAYQHGGVTGLSQY
modifications: phosphorylated (residues not stated)
Regarding B2, the binding result in test [1] and in test [2] was “binds” throughout.
